Consider one molecule from paper PMC10838262.

This assay deals with T1, NAT10 (human (endogenous in A549)) (UniProt Q9H0A0).
T1 sequence: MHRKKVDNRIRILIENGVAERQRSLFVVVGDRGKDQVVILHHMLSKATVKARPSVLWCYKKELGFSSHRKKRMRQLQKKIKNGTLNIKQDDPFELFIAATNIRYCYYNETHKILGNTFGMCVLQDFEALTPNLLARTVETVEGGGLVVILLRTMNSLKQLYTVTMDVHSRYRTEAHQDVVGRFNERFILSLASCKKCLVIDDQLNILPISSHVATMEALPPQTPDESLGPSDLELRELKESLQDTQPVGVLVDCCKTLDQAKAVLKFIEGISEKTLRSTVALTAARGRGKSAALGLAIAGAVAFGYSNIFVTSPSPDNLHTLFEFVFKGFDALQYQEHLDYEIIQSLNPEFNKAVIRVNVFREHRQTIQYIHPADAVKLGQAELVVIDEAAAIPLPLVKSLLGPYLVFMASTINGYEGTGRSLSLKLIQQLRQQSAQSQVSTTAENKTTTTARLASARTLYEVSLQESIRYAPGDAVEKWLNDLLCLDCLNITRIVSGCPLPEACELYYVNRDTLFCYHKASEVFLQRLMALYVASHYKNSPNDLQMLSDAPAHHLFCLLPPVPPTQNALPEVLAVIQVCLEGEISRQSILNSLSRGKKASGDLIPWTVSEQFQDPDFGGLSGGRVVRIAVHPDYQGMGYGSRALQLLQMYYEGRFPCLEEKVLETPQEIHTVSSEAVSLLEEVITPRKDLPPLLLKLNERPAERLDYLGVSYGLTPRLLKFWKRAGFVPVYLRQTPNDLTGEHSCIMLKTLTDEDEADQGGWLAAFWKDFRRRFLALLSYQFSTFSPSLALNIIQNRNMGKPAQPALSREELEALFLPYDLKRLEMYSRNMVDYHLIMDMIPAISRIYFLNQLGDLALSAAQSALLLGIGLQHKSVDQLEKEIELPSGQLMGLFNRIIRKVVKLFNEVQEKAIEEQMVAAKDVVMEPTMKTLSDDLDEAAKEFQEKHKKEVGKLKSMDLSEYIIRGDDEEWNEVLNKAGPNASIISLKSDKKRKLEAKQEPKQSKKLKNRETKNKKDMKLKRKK
Put plainly: co-IP; A549 cells lysed with RIPA-lysis buffer, treated with or without RNase A, immunoprecipitated with anti-NAT10 antibody, Western blotting. On the technique in general: A western blot detects proteins with antibodies after separation by electrophoresis.

Results are given in words; binding and its absence hold for the method and conditions named. Binding seen in cells or lysates may run through a third protein. Some results given as binding are weak or reduced against the parent protein; the word gives no strength.

B1: DGCR8 (protein, UniProt Q8WYQ5 1-773)
chain: METDESPSPLPCGPAGEAVMESRARPFQALPREQSPPPPLQTSSGAEVMDVGSGGDGQSELPAEDPFNFYGASLLSKGSFSKGRLLIDPNCSGHSPRTARHAPAVRKFSPDLKLLKDVKISVSFTESCRSKDRKVLYTGAERDVRAECGLLLSPVSGDVHACPFGGSVGDGVGIGGESADKKDEENELDQEKRVEYAVLDELEDFTDNLELDEEGAGGFTAKAIVQRDRVDEEALNFPYEDDFDNDVDALLEEGLCAPKKRRTEEKYGGDSDHPSDGETSVQPMMTKIKTVLKSRGRPPTEPLPDGWIMTFHNSGVPVYLHRESRVVTWSRPYFLGTGSIRKHDPPLSSIPCLHYKKMKDNEEREQSSDLTPSGDVSPVKPLSRSAELEFPLDEPDSMGADPGPPDEKDPLGAEAAPGALGQVKAKVEVCKDESVDLEEFRSYLEKRFDFEQVTVKKFRTWAERRQFNREMKRKQAESERPILPANQKLITLSVQDAPTKKEFVINPNGKSEVCILHEYMQRVLKVRPVYNFFECENPSEPFGASVTIDGVTYGSGTASSKKLAKNKAARATLEILIPDFVKQTSEEKPKDSEELEYFNHISIEDSRVYELTSKAGLLSPYQILHECLKRNHGMGDTSIKFEVVPGKNQKSEYVMACGKHTVRGWCKNKRVGKQLASQKILQLLHPHVKNWGSLLRMYGRESSKMVKQETSDKSVIELQQYAKKNKPNLHILSKLQEEMKRLAEEREETRKKPKMSIVASAQPGGEPLCTVDV
In the case of B1, the binding entry is given as “binds”.
